Assay [1] has as its target T1, CsrA^D41K, co-expressed with FliW or FliW^K123E in B. subtilis (B. subtilis) (UniProt P33911).
T1 sequence: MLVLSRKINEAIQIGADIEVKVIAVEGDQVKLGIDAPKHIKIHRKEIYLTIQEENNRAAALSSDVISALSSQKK
The assay can be described thus: cross-linking.

Assay [2] concerns the target T2, CsrA (wild type), co-expressed with FliW in B. subtilis (B. subtilis) (UniProt P33911).
T2 sequence: T1 sequence with K41D
The assay can be described thus: cross-linking.

For assay [3], the target named is T3, GST tagged CsrA (GST-CsrA^WT) (B. subtilis) (UniProt P33911).
T3 sequence: T1 sequence with K41D
The assay can be described thus: pull-down.

Assay [4] concerns the target T4, GST-CsrA^D41K (B. subtilis) (UniProt P33911).
T4 sequence: T1 sequence
The assay can be described thus: pull-down.

Substitutions are numbered along the chain they refer to. In names and notes the source's numbering stands. No constants are given. Whether binding was seen depends on the method and setting. For some assays here: In cells and extracts the contact can be indirect. Some binding calls cover weakened binding; strength is not graded here. For some assays here: Where a sequence is shown, tags or fusion partners need not be part of it.

B1: FliW (wild type), co-expressed with CsrA in B. subtilis (protein, UniProt P96503 1-143)
chain: MIIHTKYHGQMNIKEEQIILFESGIPGFLEEKQFVILPLSEDSPFVALQSVTSENLAFIVVSPFIFFKNYEFDLDESTAELLDIDNIQDVEVMTILTMAEPFEKSTANLLAPIIVNRKNMMAKQVVLHDSSYTTKHPIGGESC
For the molecule B1, the binding entry in assay [1] and in assay [2] was “binds” each time.

B2: purified FliW^Q124R (protein, UniProt P96503 1-143)
chain: B1 chain with Q124R
Take B2: the binding result in assay [3] is “no binding (tested: 0.5 μM)”.

B3: FliW^A122V, co-expressed with CsrA in B. subtilis (protein, UniProt P96503 1-143)
chain: B1 chain with A122V
For the molecule B3, the binding entry in assay [2] is on record as “binds”.

B4: purified FliW^N108Y (protein, UniProt P96503 1-143)
chain: B1 chain with N108Y
With B4, in assay [3], the binding entry was “no binding (tested: 0.5 μM)”.

B5: purified untagged wild-type FliW (FliW^WT) (protein, UniProt P96503 1-143)
chain: B1 chain
Consider B5, for which, in assay [4], the binding entry is “binds weakly”.

B6: FliW^K123E, co-expressed with CsrA or CsrA^D41K in B. subtilis (protein, UniProt P96503 1-143)
chain: B1 chain with K123E
As to B6, the binding result in assay [1] and in assay [2] was “binds” throughout.

The values above are taken from article doi:10.1101/2020.07.02.184341.
